Assay results taken from patent US20060073595.

How the values were obtained:
[1] = molecular target: Lac repressor (LacI), wild type, M45-tagged (Escherichia coli) (UniProt P03023); experiment: EMSA; conditions: 293 whole cell extract; supershifted by M45 antibody; protein in a lysate after overexpression; label: radiolabel
[2] = molecular target: Lac repressor X86 mutant, M45-tagged S61L (Escherichia coli) (UniProt P03023); experiment: EMSA; conditions: 293 whole cell extract; supershifted by M45 antibody; protein in a lysate after overexpression; protein details: M45 epitope tag, expressed in 293 cells; label: radiolabel

Row | Sequence | binding result [1] | binding result [2]
1 | TCGACAATTGTGAGCGCTCACAATTC (double strand) [lac binding site monomer (symmetric)] | binds | binds
2 | TCGACAATTGTGAGCGCTCACAATTTGTCTAGGGCCGCGGGGACTTTGACCGTTTACGTGGAGG (double strand) [AV-VII(lac)2 dimer (head-to-tail dimer of the printed unit)] | binds | binds

Where cells or extracts were used, other partners may take part. For at least one entry, the source does not settle the construct or the ends of the probe.
